The list shows a part of the results.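 How the source made its calls: active = dose-dependent thermal stabilisation significant by F-test of dose-response against flat model at 10% FDR; inactive = not significant.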
compound: Nc1nc2c(ncn2[C@@H]2O[C@H](COP(=O)(O)OP(=O)(O)OP(=O)(O)O)[C@@H](O)[C@H]2O)c(=O)[nH]1; test: dose-dependent thermal stabilisation call (2D-TPP, DLPTP, 10% FDR) (binary (1 = stabilised)); higher = stabilised by the compound; details: system: Jurkat gel-filtered lysate; concentration range 1-500 µM

Sequences of proteins named here, by UniProt entry; tags and fusion partners are left off. A change or cut given only in a name is not applied to a line headed by its entry.
UniProt Q92466: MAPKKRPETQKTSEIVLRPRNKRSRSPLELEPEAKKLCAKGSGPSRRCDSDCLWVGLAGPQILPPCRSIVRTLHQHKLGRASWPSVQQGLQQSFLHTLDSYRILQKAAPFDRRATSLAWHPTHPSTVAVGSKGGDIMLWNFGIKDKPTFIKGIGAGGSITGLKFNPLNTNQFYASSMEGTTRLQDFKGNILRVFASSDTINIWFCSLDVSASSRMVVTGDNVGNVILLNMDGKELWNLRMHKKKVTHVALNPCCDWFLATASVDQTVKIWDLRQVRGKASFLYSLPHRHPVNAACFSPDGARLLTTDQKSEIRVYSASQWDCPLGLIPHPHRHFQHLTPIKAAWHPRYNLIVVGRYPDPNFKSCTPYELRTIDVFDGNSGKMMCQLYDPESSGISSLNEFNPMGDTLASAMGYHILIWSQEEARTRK
UniProt Q96FC9: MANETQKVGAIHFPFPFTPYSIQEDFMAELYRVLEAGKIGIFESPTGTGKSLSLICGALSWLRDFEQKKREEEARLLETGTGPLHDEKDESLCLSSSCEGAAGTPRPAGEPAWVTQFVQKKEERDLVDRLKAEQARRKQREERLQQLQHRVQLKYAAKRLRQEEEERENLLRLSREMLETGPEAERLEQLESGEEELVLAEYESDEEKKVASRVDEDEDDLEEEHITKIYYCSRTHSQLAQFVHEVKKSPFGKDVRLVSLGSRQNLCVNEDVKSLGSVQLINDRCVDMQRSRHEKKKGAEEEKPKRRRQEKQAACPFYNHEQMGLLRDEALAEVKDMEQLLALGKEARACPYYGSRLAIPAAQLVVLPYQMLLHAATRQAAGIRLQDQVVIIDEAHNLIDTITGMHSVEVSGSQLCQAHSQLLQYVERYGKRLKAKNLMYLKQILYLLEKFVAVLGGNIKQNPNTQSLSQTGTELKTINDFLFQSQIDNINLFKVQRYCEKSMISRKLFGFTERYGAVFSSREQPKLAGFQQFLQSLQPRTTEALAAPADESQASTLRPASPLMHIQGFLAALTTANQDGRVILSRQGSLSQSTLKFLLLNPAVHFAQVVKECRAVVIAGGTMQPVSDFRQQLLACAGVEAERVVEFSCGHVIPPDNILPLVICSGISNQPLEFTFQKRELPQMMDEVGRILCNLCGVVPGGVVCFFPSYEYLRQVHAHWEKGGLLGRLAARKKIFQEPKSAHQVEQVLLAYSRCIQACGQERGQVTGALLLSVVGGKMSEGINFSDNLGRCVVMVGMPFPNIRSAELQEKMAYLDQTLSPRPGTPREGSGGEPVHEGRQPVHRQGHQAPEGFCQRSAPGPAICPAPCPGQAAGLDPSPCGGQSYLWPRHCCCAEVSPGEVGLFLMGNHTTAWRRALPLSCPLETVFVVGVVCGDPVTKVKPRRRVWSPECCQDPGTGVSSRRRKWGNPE
UniProt O43583: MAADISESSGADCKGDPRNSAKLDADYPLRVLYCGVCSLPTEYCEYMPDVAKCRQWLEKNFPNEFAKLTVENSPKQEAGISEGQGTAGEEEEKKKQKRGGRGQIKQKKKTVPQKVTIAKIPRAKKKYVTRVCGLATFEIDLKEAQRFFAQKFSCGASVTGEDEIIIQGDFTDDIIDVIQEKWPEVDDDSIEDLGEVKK
UniProt Q96C86: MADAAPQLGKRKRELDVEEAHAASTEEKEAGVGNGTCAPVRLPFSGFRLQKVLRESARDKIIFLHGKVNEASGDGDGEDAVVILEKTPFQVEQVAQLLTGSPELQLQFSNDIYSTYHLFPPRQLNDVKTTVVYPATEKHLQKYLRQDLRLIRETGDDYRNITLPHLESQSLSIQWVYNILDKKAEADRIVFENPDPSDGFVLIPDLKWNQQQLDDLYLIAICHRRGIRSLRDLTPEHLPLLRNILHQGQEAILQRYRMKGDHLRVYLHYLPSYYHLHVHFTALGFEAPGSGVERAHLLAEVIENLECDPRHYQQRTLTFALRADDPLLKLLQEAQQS
UniProt P36957: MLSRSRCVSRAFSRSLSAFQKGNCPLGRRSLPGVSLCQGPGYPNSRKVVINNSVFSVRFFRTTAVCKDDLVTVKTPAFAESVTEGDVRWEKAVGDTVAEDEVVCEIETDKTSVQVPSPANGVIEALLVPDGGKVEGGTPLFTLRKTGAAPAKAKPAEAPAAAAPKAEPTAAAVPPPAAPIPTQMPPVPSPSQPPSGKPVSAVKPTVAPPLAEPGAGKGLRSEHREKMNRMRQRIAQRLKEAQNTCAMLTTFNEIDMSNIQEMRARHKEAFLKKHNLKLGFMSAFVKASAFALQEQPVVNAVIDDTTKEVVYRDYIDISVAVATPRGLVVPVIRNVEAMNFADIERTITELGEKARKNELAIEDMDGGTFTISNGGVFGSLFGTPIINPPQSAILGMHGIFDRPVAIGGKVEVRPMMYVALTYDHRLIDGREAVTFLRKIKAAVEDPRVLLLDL
UniProt O43169: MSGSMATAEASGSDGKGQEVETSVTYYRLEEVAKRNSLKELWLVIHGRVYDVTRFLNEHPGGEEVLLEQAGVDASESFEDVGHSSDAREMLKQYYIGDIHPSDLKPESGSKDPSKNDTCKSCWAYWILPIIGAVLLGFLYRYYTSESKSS
UniProt P78352, whole entry, looked up: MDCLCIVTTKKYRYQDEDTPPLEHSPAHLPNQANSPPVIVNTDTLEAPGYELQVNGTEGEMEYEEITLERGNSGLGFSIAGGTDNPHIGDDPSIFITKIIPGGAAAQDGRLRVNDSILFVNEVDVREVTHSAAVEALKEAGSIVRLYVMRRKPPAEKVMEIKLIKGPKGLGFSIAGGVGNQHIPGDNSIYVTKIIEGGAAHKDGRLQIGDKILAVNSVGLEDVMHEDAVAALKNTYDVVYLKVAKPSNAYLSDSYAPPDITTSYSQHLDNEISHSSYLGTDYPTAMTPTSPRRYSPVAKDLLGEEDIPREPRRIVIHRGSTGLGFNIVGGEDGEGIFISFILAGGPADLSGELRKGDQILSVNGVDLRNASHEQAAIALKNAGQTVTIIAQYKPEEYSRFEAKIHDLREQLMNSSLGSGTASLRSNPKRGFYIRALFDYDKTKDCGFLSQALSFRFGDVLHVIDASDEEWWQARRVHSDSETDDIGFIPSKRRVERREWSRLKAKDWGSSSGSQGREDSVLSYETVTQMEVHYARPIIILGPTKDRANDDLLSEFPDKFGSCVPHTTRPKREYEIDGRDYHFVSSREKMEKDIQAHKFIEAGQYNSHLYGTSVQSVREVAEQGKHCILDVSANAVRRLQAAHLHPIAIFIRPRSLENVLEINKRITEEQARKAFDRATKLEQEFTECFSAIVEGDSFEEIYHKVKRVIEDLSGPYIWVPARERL
UniProt P04080: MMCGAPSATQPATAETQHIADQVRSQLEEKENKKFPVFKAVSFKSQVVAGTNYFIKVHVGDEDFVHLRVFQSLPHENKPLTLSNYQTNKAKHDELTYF
UniProt P24534: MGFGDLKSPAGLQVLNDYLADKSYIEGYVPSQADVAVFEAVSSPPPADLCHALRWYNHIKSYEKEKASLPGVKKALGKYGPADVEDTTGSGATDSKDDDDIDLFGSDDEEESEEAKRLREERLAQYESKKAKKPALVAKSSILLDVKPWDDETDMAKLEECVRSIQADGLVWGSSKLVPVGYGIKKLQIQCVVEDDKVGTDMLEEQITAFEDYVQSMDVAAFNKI
UniProt Q9BZG8: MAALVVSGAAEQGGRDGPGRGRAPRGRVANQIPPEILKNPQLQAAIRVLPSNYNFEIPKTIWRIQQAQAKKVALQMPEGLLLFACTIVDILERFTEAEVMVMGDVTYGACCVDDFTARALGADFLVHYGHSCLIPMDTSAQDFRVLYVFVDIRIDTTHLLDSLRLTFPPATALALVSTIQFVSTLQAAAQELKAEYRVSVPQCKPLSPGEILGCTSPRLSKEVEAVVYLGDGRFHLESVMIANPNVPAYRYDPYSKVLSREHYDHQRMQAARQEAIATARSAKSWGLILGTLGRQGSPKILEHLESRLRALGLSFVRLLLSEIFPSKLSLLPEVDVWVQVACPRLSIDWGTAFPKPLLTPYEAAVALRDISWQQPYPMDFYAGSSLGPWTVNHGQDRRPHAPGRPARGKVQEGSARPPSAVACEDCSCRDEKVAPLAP
UniProt P68104, whole entry: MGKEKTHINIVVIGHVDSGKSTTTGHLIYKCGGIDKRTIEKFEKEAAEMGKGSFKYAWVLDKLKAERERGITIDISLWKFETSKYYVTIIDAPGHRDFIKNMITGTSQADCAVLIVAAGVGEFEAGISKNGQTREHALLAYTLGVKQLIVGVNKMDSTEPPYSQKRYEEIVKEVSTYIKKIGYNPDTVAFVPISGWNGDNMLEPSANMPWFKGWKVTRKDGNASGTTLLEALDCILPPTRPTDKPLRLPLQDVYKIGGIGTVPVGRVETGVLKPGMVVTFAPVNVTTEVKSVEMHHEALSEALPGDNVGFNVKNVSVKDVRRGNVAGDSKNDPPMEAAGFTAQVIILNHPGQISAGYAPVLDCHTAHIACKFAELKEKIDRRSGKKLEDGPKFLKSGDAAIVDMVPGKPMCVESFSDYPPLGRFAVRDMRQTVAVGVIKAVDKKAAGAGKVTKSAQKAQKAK
UniProt O00571: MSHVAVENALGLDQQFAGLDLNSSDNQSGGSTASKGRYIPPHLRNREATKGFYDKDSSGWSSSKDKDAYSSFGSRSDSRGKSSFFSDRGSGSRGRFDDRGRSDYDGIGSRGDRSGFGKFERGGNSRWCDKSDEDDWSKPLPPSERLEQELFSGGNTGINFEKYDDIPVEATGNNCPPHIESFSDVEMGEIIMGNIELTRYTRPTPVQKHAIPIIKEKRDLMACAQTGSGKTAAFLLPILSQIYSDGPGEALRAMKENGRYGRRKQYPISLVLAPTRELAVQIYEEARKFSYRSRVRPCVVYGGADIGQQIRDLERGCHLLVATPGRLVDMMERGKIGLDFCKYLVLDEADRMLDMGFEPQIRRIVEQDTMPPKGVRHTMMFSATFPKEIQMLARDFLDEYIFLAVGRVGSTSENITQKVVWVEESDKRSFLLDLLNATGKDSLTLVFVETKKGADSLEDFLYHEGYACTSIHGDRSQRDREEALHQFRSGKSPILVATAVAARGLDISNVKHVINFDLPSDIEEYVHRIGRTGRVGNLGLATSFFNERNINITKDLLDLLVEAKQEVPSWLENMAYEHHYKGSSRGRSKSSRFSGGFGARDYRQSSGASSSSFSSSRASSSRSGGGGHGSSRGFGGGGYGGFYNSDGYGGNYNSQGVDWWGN
UniProt Q6UXH1: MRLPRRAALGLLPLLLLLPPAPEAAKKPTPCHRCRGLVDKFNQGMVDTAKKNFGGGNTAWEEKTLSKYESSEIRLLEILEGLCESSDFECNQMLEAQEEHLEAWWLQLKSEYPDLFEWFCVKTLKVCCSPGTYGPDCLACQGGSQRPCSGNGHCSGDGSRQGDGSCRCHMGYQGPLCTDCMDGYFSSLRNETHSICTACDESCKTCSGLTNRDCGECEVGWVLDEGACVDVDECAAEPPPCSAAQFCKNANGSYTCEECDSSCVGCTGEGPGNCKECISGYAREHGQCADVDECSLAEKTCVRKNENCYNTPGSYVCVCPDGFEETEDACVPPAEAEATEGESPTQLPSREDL
UniProt Q4LDG9: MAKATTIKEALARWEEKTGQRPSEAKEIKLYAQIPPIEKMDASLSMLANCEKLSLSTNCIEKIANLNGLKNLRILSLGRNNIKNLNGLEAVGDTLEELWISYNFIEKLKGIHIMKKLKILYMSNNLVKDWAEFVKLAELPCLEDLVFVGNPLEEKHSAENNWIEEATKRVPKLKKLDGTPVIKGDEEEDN
UniProt Q66K89: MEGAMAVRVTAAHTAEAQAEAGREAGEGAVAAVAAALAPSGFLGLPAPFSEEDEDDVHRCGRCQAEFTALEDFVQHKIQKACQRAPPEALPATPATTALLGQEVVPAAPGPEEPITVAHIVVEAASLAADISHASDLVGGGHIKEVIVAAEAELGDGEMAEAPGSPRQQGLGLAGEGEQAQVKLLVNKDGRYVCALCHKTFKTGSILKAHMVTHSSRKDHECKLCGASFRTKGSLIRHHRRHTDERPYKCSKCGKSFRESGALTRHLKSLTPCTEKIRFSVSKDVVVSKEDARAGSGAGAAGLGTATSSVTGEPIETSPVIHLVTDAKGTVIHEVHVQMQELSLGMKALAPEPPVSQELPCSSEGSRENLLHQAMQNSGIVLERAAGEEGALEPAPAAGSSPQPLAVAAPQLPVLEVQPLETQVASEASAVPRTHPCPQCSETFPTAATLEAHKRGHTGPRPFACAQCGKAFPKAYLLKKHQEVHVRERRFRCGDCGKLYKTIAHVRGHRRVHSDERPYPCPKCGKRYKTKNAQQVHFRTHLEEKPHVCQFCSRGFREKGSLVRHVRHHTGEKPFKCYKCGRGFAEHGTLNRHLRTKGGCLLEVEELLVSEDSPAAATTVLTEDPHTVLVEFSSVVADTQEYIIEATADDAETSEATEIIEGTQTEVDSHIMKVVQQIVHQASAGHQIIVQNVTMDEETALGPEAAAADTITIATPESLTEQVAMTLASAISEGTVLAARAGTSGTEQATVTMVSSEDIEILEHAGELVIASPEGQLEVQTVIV

| Target | dose-dependent thermal stabilisation call |
| --- | --- |
| DDB2 (UniProt Q92466) | inactive: 0 |
| CWC22 (UniProt Q9HCG8) | inactive: 0 |
| DCAF13 (UniProt Q9NV06) | inactive: 0 |
| DIAPH1 (UniProt O60610) | inactive: 0 |
| DDX11 (UniProt Q96FC9) | active: 1 |
| DENR (UniProt O43583) | inactive: 0 |
| DNAJB6 (UniProt O75190) | inactive: 0 |
| EED (UniProt O75530) | inactive: 0 |
| DCPS (UniProt Q96C86) | inactive: 0 |
| CRYZ (UniProt Q08257) | inactive: 0 |
| DLST (UniProt P36957) | inactive: 0 |
| CYB5B (UniProt O43169) | inactive: 0 |
| EDC3 (UniProt Q96F86) | inactive: 0 |
| DUSP12 (UniProt Q9UNI6) | inactive: 0 |
| DLG4 (UniProt P78352) | inactive: 0 |
| EDC4 (UniProt Q6P2E9) | inactive: 0 |
| DAB2IP (UniProt Q5VWQ8) | inactive: 0 |
| CTNNBL1 (UniProt Q8WYA6) | inactive: 0 |

| Target | dose-dependent thermal stabilisation call |
| --- | --- |
| DECR1 (UniProt Q16698) | inactive: 0 |
| DPYD (UniProt Q12882) | inactive: 0 |
| DTL (UniProt Q9NZJ0) | inactive: 0 |
| DLD (UniProt P09622) | inactive: 0 |
| CSTB (UniProt P04080) | inactive: 0 |
| EEF1B2 (UniProt P24534) | inactive: 0 |
| DDX21 (UniProt Q9NR30) | active: 1 |
| DPH1 (UniProt Q9BZG8) | active: 1 |
| EEF1A1 (UniProt P68104) | active: 1 |
| DDX3X (UniProt O00571) | inactive: 0 |
| DMXL1 (UniProt Q9Y485) | inactive: 0 |
| DNAJC24 (UniProt Q6P3W2) | inactive: 0 |
| DNAJC17 (UniProt Q9NVM6) | inactive: 0 |
| DNAJC21 (UniProt Q5F1R6) | inactive: 0 |
| CRELD2 (UniProt Q6UXH1) | inactive: 0 |
| DNAL1 (UniProt Q4LDG9) | inactive: 0 |
| DEK (UniProt P35659) | inactive: 0 |
| E4F1 (UniProt Q66K89) | active: 1 |

Laid out differently: entries from further up
DNAJC24 (UniProt Q6P3W2)
  dose-dependent thermal stabilisation call: inactive: 0
DNAJC17 (UniProt Q9NVM6)
  dose-dependent thermal stabilisation call: inactive: 0
DNAJC21 (UniProt Q5F1R6)
  dose-dependent thermal stabilisation call: inactive: 0

From the supplement of paper PMC7666118
